Assay: general procedure: Fmoc solid-phase peptide synthesis; Rink-amide resin
Conditions: whole synthesis

Substance	purity (crude or final not stated) (HPLC method A)	purity (crude or final not stated) (HPLC method B)	purity (crude or final not stated) (HPLC method C)
Ac-E(OMe)E(OMe)MQRR-NH2	about 98.8%	about 91.6%	
Ac-Glu(OMe)-Glu(OMe)-Met-Gln-Arg(Boc)2-Arg(Boc)2-NH2			about 97.1%
